Results taken from PubChem BioAssay AID2685 (National Center for Advancing Translational Sciences (NCATS), 2010).
Some of the results follow. The main result of the screen is listed elsewhere. These columns were measured beside it and carry no call. The list favours compounds with an active or inconclusive main result. The note in brackets gives the kind of curve behind each potency; many fits are weak.

Assay: qHTS Assay for Lipid Storage Modulators in Drosophila S3 Cells;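 as to cell number change: cells counted by Cell Tracker Red CMTPX staining in the red channel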
Conditions: BODIPY lipid droplet fluorescence, 18-24 h; for cell number change: measured here: cell count max response, cells fed with added oleic acid
Method in brief: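 Drosophila S3 cells loaded with oleic acid (400 uM, as added) and compounds at several concentrations; lipid droplets imaged by 488-nm laser-scanning cytometry, 500–530 nm intensity and object ratio to cell channel. Percent activity normalized to 20 uM Triacsin C.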

[1] = measured here: lipid fluorescence (Fed channel) AC50, cells fed with added oleic acid
[2] = measured here: cell number channel AC50, cells fed with added oleic acid

SMILES | cell number change [%] | AC50 [1] | AC50 [2]
CC(=O)NCCNC(=O)c1ccc2c(c1)S(=O)(=O)c1ccccc1C2=O | -12.4 |  | 
O=C(N/N=C/c1ccc(N2CCOCC2)cc1)c1ccccc1OCCOc1ccccc1 | -21 | 29.1 µM [falling, single point] | 
CC(=O)N1c2c(cc(Br)cc2S(=O)(=O)N2CCCCC2)CC1C (configuration not stated) | 3.48 |  | 
CCn1c(=O)cc(OCC(=O)Nc2cccc(C)n2)c2ccccc21 |  | 10.3 µM [rising, partial curve] | 0.411 µM [rising, full curve]
COCC1CCCN(C(=O)c2ccc3nc(Cc4cccc(Cl)c4)oc3c2)C1 (configuration not stated) | -2.05 |  | 
CCOC(=O)Nc1ccc2c(CN3C(=O)NC(CC)(CC)C3=O)cc(=O)oc2c1 | -48.4 | 3.26 µM [rising, partial curve] | 16.4 µM [falling, single point]
CCOC(=O)c1cc(OC(=O)c2cccs2)n(-c2ccccc2)n1 | 1.56 | 23.1 µM [rising, single point] | 
O=C(CSc1ccccc1)Nc1cc(S(=O)(=O)N2CCOCC2)ccc1N1CCOCC1 |  |  | 3.26 µM [rising, single point]
Cc1cc(C)n2nc(SCC(=O)N(C)c3c(N)n(Cc4ccccc4)c(=O)[nH]c3=O)nc2n1 |  |  | 6.51 µM [rising, single point]
Cc1cccc(C(=O)CC(=O)c2cc(Cl)ccc2O)c1 | 13.9 | 14.6 µM [rising, partial curve] | 6.51 µM [rising, single point]
CCOC(=O)c1oc2nc(C(C)C)c3c(c2c1N)CC(C)(C)OC3 | -7.84 | 9.2 µM [rising, partial curve, poor fit] | 
CCCCC1CCC(C(=O)OCC(=O)N(CCOC)c2c(N)n(Cc3ccccc3)c(=O)[nH]c2=O)CC1 (configuration not stated) | -27.6 |  | 4.61 µM [falling, full curve, poor fit]
O=C(CSc1nncs1)Nc1ccc(S(=O)(=O)N2CCCC2)cc1 | 5.05 |  | 
O=C(COC(=O)c1ccc(S(=O)(=O)N2CCCC2)cc1)Nc1ccc(Cl)cc1 | -32.6 | 4.11 µM [falling, full curve, poor fit] | 3.66 µM [falling, full curve, poor fit]
CCOC(=O)NNC1CC(=O)N(c2ccc(OC)cc2)C1=O (configuration not stated) | 146 |  | 0.411 µM [rising, single point]
COc1ccc(/C=C/C(=O)N(Cc2cccs2)C2CCS(=O)(=O)C2)cc1 (configuration not stated) | -12.8 |  | 
Cc1oc2c(C)c3oc(=O)c(CCC(=O)NCCCN4CCCC4=O)c(C)c3cc2c1C | 6.47 |  | 
CC1CC1C(=O)OCC(=O)Nc1ccc(N=Nc2ccccc2)cc1 (configuration not stated) | 3.02 | 29.1 µM [falling, single point] | 
C#CCn1c(=NC(=O)c2cc(-c3cccs3)nc3ccccc23)sc2cc(S(N)(=O)=O)ccc21 | -8.7 | 0.517 µM [rising, full curve] | 
Cn1c(=O)c2c(nc(N/N=C/c3ccc(OC(=O)c4ccco4)cc3)n2Cc2ccc(F)cc2)n(C)c1=O | -29.8 | 13 µM [falling, partial curve] | 
Cn1c(C(C#N)C2=C(Cl)C(=O)N(c3ccccc3)C2=O)nc2ccccc21 (configuration not stated) | 12.2 | 9.2 µM [falling, partial curve] | 

Four of the compounds above, as labelled records:
CCOC(=O)Nc1ccc2c(CN3C(=O)NC(CC)(CC)C3=O)cc(=O)oc2c1
  cell number change [%]: -48.4
  AC50 [1]: 3.26 µM [rising, partial curve]
  AC50 [2]: 16.4 µM [falling, single point]
CCOC(=O)c1cc(OC(=O)c2cccs2)n(-c2ccccc2)n1
  cell number change [%]: 1.56
  AC50 [1]: 23.1 µM [rising, single point]
O=C(CSc1ccccc1)Nc1cc(S(=O)(=O)N2CCOCC2)ccc1N1CCOCC1
  AC50 [2]: 3.26 µM [rising, single point]
Cc1cc(C)n2nc(SCC(=O)N(C)c3c(N)n(Cc4ccccc4)c(=O)[nH]c3=O)nc2n1
  AC50 [2]: 6.51 µM [rising, single point]

The listing continues:

SMILES | cell number change [%] | AC50 [1] | AC50 [2]
COc1cc(OC)c(C(=O)OCC(=O)c2cc(C)n(CC3CCCO3)c2C)cc1OC (configuration not stated) | 41.8 | 2.59 µM [rising, full curve] | 18.4 µM [rising, single point]
Cc1ccc(NC(=O)CSc2nnc(CNC(=O)c3ccccc3F)o2)cc1Cl | -9.07 | 29.1 µM [falling, single point] | 
Clc1ccc(OCCN2CCCCC2)cc1Cl |  | 1.64 µM [falling, full curve, poor fit] | 
Cc1ccc(-n2c(SCC(=O)Nc3ncc(Cl)cc3Cl)nc3ccccc32)cc1 | 16.7 | 13 µM [falling, partial curve, poor fit] | 4.11 µM [falling, single point]
COC(=O)CSc1nc2sccc2c(=O)n1-c1ccccc1 | 5.41 |  | 
COc1ccc(NC2(c3ccc(Cl)cc3)C(=O)c3ccccc3C2=O)cc1 |  | 0.00517 µM [rising, full curve, poor fit] | 
Cc1ccc(NC(=O)c2cc(NC(=O)C3CC=CCC3C(=O)O)ccc2N2CCOCC2)cc1 (configuration not stated) | -9.09 |  | 
COc1ccc(/C=C/C(=O)OCC(=O)NCc2ccco2)c(OC)c1 | 13.3 |  | 
O=c1[nH]c2ccc(S(=O)(=O)N3CCN(c4ccccc4)CC3)cc2[nH]c1=O | 4.76 | 4.61 µM [falling, single point] | 
C#CCOc1ccc2c3c(c(=O)oc2c1)CCCC3 | 1.76 | 2.06 µM [rising, full curve] | 
O=C(Oc1ccc2c(c1)OCO2)C12CC3CC(CC(C3)C1)C2 | -41.3 | 14.6 µM [falling, partial curve] | 14.6 µM [falling, single point]
CCOc1ccc(C(C)NC(=O)c2ccc3c(c2)NC(=O)C(C)S3)cc1OCC (configuration not stated) | 3.63 | 0.164 µM [rising, full curve, poor fit] | 
OC(CN1CCc2ccccc2C1)c1ccccc1 (configuration not stated) | -8.23 | 0.00517 µM [falling, full curve, poor fit] | 0.00461 µM [falling, full curve, poor fit]
COc1ccc(-c2csc3ncnc(N4CCN(S(=O)(=O)c5ccc(C)cc5)CC4)c23)cc1 | 29.3 |  | 
CSc1nc2nccc(-c3ccc(Oc4ccccc4)cc3)n2n1 | 11.5 | 0.13 µM [rising, full curve, poor fit] | 0.206 µM [rising, full curve, poor fit]
CCOC(=O)CSc1nnc(NC(=O)NC(C)C)s1 | -15.7 |  | 0.146 µM [falling, full curve, poor fit]
Cc1cc(C)n(Cc2cccc(F)c2)c(=O)c1C#N | -11.7 |  | 
Cc1nnc(SCC(=O)Nc2c(Cl)cccc2Cl)[nH]c1=O | 36.3 |  | 
COc1ccc(N2CCN(CCNC(=O)Nc3ccc(C)cc3Cl)CC2)cc1 |  | 6.51 µM [falling, single point] | 
Cc1cc(C)nc(SCC(=O)N/N=C/c2cc(C)n(-c3ccccc3C)c2C)n1 | 17.5 | 29.1 µM [rising, single point] | 
COc1cc(C(=O)N2CCN(S(=O)(=O)c3ccc(C)cc3C)CC2)ccc1OCC(=O)N1CCOCC1 | 16.5 |  | 

SMILES | cell number change [%] | AC50 [1] | AC50 [2]
C[n+]1cn(/N=C/c2ccccc2)c2ccccc21 | 7.82 | 3.66 µM [falling, single point] | 
CC(=O)c1ccc(OC(=O)C2c3ccccc3Oc3ccccc32)cc1 | -30.1 | 23.1 µM [falling, partial curve, poor fit] | 29.1 µM [falling, single point]
O=c1cc(CO)oc(CN2CCN(Cc3ccccc3)CC2)c1O | -16.4 | 23.1 µM [rising, single point] | 
O=C(N/N=C\c1ccc(F)cc1)c1csnn1 | 116 |  | 
O=[N+]([O-])c1ccccc1S(=O)(=O)N1CCN(Cc2ccccc2)CC1 | 4.99 | 10.3 µM [falling, single point] | 
C/C(Cn1nnc([N+](=O)[O-])n1)=N\NC(=O)c1ccc(O)cc1O | 119 |  | 4.11 µM [rising, full curve, poor fit]
O=C(O)CCc1ccc(-c2ccc(Cl)cc2)n1CC(=O)O | -21.5 | 29.1 µM [falling, single point] | 
CCC(=O)Nc1cccc(NC(=O)CSc2nnnn2C)c1 | 21.3 | 5.17 µM [rising, partial curve] | 
CC(C)CN(CC(C)C)C(=O)COc1ccccc1C(N)=O | 33.7 | 0.00411 µM [rising, full curve, poor fit] | 0.00461 µM [rising, full curve]
CCOC(=O)/C(N=Nc1ccc(C(=O)O)cc1[N+](=O)[O-])=C(\C)O | 4.74 |  | 
COc1ccc(-c2cc(C(F)(F)F)c3c(N)c(C(=O)NCCSC)sc3n2)cc1 | 89.9 | 6.51 µM [falling, single point] | 29.1 µM [rising, single point]
COCCCN1C(=O)c2ccc(C(=O)OCC(=O)N(C)c3ccccc3)cc2C1=O |  |  | 0.164 µM [rising, single point]
COc1ccc(S(=O)(=O)Nc2ccccc2OC)cc1NC(=O)CC1CC2CCC1C2 (configuration not stated) | 16.7 | 2.91 µM [rising, partial curve] | 
O=C(CCNS(=O)(=O)c1ccc(Cl)cc1)N1CCCCCC1 | 33.7 |  | 
Cc1ccc(SCCN2CCN(C)CC2)cc1 | -3.15 |  | 
Cc1noc(C)c1CSc1nnc(-c2c[nH]c3ccccc23)n1-c1ccc(Cl)cc1 | -10.5 |  | 
Cc1cc(C(=O)OCC(=O)NC(C)C)c(C)o1 | 4.53 | 0.92 µM [falling, full curve] | 
Cn1c2c(c(=O)n(C)c1=O)C1c3cc(Cl)ccc3OCC1CO2 (configuration not stated) | 31.3 | 4.61 µM [falling, single point] | 11.6 µM [rising, partial curve, poor fit]
Clc1ccc(-c2csc(Nc3cccnc3)n2)cc1 | 17.4 | 0.13 µM [rising, full curve, poor fit] | 
COc1ccc2[nH]c3c(N4CCN(Cc5ccc6c(c5)OCO6)CC4)ncnc3c2c1 | -14.1 | 29.1 µM [falling, single point] | 
